# Out of some 360,000 compounds screened, about 7,500 (2.1%) were called active. Inconclusive means that the source gave no clear call. Such entries were picked first, then a sample of the others. The call rests on the fitted dose curve; in most records, active means well fitted inhibition curve with a large enough effect; inconclusive means small, poorly fitted or top-dose-only effect, or effect the other way; inactive means flat fitted curve, though single readings scatter. Potencies of inconclusive entries are doubtful fits and often do not repeat.
# Assay: Nrf2 qHTS screen for inhibitors; further: nearly all actives have a fitted effect of over 60% in size
# Conditions: A549 ARE-Fluc reporter, luciferase luminescence, 18-24 h; series mostly up to 46 µM
# In short: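 In this cell-based qHTS, ARE-driven firefly luciferase in A549 cells reports Nrf2 activity; the luminescent signal after BugLite lysis is the measured value, with a prior CellTiter-Fluor read for cell health.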
# Potency means the concentration at half of the fitted maximal effect.
row,Structure (SMILES),Potency
1,Cc1cc2cc(CN(Cc3ccco3)S(=O)(=O)c3c(C)ccc4nsnc34)c(=O)[nH]c2cc1C,active: 2.31 µM
2,COc1ccc(NC(=O)CC(CC(=O)O)c2cc(OC)c(OC)c(OC)c2)cc1 (stereo not drawn),"inconclusive: 29.1 µM [activator, single point]"
3,O=C(Nc1ncc(Cc2ccc(SC(F)F)cc2)s1)c1ccc(OC(F)F)cc1,"inconclusive: 14.6 µM [falling, partial curve]"
4,CC(C)(C)OC(=O)NCCCCCNC(=O)c1nc[nH]c1C(=O)N1CCN(c2ccccc2)CC1,"inconclusive: 0.651 µM [falling, full curve, poor fit]"
5,COc1cccc(C(=O)N(Cc2cccc(Cl)c2)Cc2ccco2)c1,"inconclusive: 29.1 µM [falling, single point]"
6,Cc1ccc(-c2cc(C(=O)N(C)Cc3cnn(C)c3C)c3cc(Br)ccc3n2)cc1,"inconclusive: 29.1 µM [falling, single point]"
7,COc1cc(C(=O)Nc2sc3c(c2C(=O)NCc2ccco2)CCCC3)cc(OC)c1OC,"inconclusive: 4.11 µM [falling, partial curve, poor fit]"
8,C=CCn1c(SCC(=O)N2CCN(c3ccc(F)cc3)CC2)nnc1-c1ccco1,active: 18.4 µM
9,O=C(c1cc(COc2cccc3cnccc23)on1)N1CCC(c2ccccc2Cl)C1 (stereo not drawn),"inconclusive: 18.4 µM [falling, partial curve, poor fit]"
10,CSc1cccc(NC(=O)c2ccc3c(c2)c(C)c(C)n3Cc2ccc(F)cc2)c1,inactive
11,O=c1cc(-c2ccccc2)cc(-c2ccccc2)n1CCCO,"inconclusive: 2.06 µM [falling, full curve]"
12,CCC(Sc1nc(C)cc(=O)[nH]1)C(=O)Nc1sc2c(c1C#N)CCCC2 (stereo not drawn),inactive
13,O=C(c1cc(=O)[nH]c2ccccc12)N1CCN(c2ccc([N+](=O)[O-])cc2)CC1,"inconclusive: 29.1 µM [falling, single point]"
14,CCOC(=O)c1cnc(-n2nc(C)cc2C)nc1NC(C)c1ccccc1 (stereo not drawn),"inconclusive: 6.51 µM [falling, single point]"
15,CC(C)NS(=O)(=O)c1ccc(OCC(=O)N2CCN(c3ccccc3F)CC2)cc1,inactive
16,O=S1(=O)N=C(Nc2cccc(C(F)(F)F)c2)c2ccccc21,"inconclusive: 32.6 µM [falling, single point]"
17,Cc1ccccc1OCC(=O)Nc1ccc(N2CCN(S(C)(=O)=O)CC2)cc1,"inconclusive: 0.82 µM [falling, full curve, poor fit]"
18,COc1ccc(CN(C)C(=O)Cn2cnc3c(NCc4ccccc4)ncnc32)cc1OC,"inconclusive: 18.4 µM [falling, partial curve]"

# Another view of some results above:
row | Structure (SMILES) | Potency
9 | O=C(c1cc(COc2cccc3cnccc23)on1)N1CCC(c2ccccc2Cl)C1 (stereo not drawn) | inconclusive: 18.4 µM [falling, partial curve, poor fit]
10 | CSc1cccc(NC(=O)c2ccc3c(c2)c(C)c(C)n3Cc2ccc(F)cc2)c1 | inactive
11 | O=c1cc(-c2ccccc2)cc(-c2ccccc2)n1CCCO | inconclusive: 2.06 µM [falling, full curve]

# — PubChem BioAssay AID504444 (National Center for Advancing Translational Sciences (NCATS), 2011)
